# Cleaved PARP after 72 h of treatment

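Human melanoma cells were exposed to two drugs together for 72 h in 1,536-well plates and read by automated microscopy after fixing and staining. Each value is the cleaved-PARP-positive fraction of nuclei relative to DMSO-treated wells, in %, so that 100 equals the control and higher values mean more apoptosis. Concentrations were fixed for each drug; these are the higher of two levels. These are primary screening values without error estimates. Basal and induced levels differ widely between cell lines.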
Only some of the drugs and lines screened are listed, without regard to their results.
An entry leaves out what has no value listed here.
A dash means that no value is listed here.

Drugs:
vorinostat, 400 nM: O=C(CCCCCCC(=O)Nc1ccccc1)NO
NVP-BEZ235, 20 nM: Cn1c(=O)n(-c2ccc(C(C)(C)C#N)cc2)c2c3cc(-c4cnc5ccccc5c4)ccc3ncc21
crizotinib, 1000 nM: C[C@@H](Oc1cc(-c2cnn(C3CCNCC3)c2)cnc1N)c1c(Cl)ccc(F)c1Cl
AZD7762, 100 nM: NC(=O)Nc1cc(-c2cccc(F)c2)sc1C(=O)N[C@H]1CCCNC1
PD173074, 500 nM: CCN(CC)CCCCNc1ncc2cc(-c3cc(OC)cc(OC)c3)c(NC(=O)NC(C)(C)C)nc2n1
LFM-A13, 10000 nM: C/C(O)=C(\C#N)C(=O)Nc1cc(Br)ccc1Br
OSU-03012, 5000 nM: NCC(=O)Nc1ccc(-n2nc(C(F)(F)F)cc2-c2ccc3c(ccc4ccccc43)c2)cc1
enzastaurin, 4000 nM: Cn1cc(C2=C(c3cn(C4CCN(Cc5ccccn5)CC4)c4ccccc34)C(=O)NC2=O)c2ccccc21
embelin, 6000 nM: CCCCCCCCCCCC1=C(O)C(=O)C=C(O)C1=O
GW441756, 2000 nM: Cn1cc(/C=C2\C(=O)Nc3cccnc32)c2ccccc21

| # | Drugs | LOX IMVI | IPC-298 | WM451Lu | 501mel | G-361 | A375 | COLO 800 | SK-MEL-28 | IST-MEL1 | C32 | LB2518-MEL | WM3619 | MZ2-MEL | UACC-62 | RPMI-7951 |
|---|---|---|---|---|---|---|---|---|---|---|---|---|---|---|---|---|
| 1 | NVP-BEZ235 and vorinostat | 67.0 | 81.2 | 47.8 | - | 72.4 | - | 20.1 | 86.0 | 76.9 | 49.4 | 129 | 159 | 77.1 | 190 | 43.9 |
| 2 | crizotinib and NVP-BEZ235 | 119 | 250 | 47.7 | - | 128 | 81.8 | 58.9 | 201 | 97.2 | 159 | 92.7 | 125 | 19.8 | 190 | 56.1 |
| 3 | GW441756 and LFM-A13 | 88.7 | 98.3 | 136 | 95.0 | 28.0 | 54.8 | 139 | 119 | 143 | 95.2 | 117 | 184 | 43.1 | 148 | 132 |
| 4 | enzastaurin and embelin | 211 | 67.9 | 139 | 54.9 | 64.9 | 78.0 | 229 | 294 | 64.7 | 80.7 | 26.2 | 174 | 64.2 | 65.2 | 334 |
| 5 | LFM-A13 and OSU-03012 | 90.6 | 216 | 194 | 1200 | 117 | 160 | 321 | 652 | 33.8 | 161 | 74.7 | 124 | 268 | 186 | 62.2 |
| 6 | LFM-A13 and AZD7762 | 381 | 146 | 258 | 299 | 40.6 | 340 | 272 | 323 | 587 | 121 | 122 | 615 | 85.4 | 268 | 78.7 |
| 7 | crizotinib and vorinostat | 79.1 | 45.5 | 147 | - | 130 | - | 41.5 | 210 | 45.4 | 123 | 160 | 117 | 25.1 | 146 | 99.1 |
| 8 | OSU-03012 and vorinostat | 49.0 | 135 | 73.2 | - | 232 | - | 262 | 716 | 97.7 | 291 | 145 | 3130 | 138 | 167 | 97.0 |
| 9 | PD173074 and embelin | 48.9 | 106 | 165 | 53.3 | 73.4 | 19.6 | 105 | 31.9 | 36.1 | 79.2 | 73.1 | 93.5 | 22.6 | 107 | 58.1 |
| 10 | AZD7762 and OSU-03012 | 127 | 286 | 87.3 | - | 170 | - | 270 | 659 | 353 | 409 | 301 | 368 | 130 | 223 | 253 |
| 11 | crizotinib and enzastaurin | 93.5 | 81.2 | 78.2 | - | 254 | 85.2 | 243 | 237 | 210 | 141 | - | 101 | - | 312 | 245 |
| 12 | NVP-BEZ235 and OSU-03012 | 115 | 220 | 56.1 | - | 235 | - | 120 | 656 | 122 | 224 | 58.8 | 1020 | 96.9 | 202 | 190 |
| 13 | LFM-A13 and crizotinib | 121 | 211 | 66.7 | 69.1 | 113 | 124 | 172 | 179 | 99.4 | 88.7 | 123 | 101 | 42.9 | 186 | 38.0 |
| 14 | vorinostat and LFM-A13 | 137 | 23.4 | 80.2 | 181 | 145 | 214 | 156 | 60.6 | 75.8 | 161 | 54.0 | 135 | 63.3 | 122 | 42.5 |
| 15 | embelin and NVP-BEZ235 | 122 | 54.5 | 300 | 45.5 | 261 | 111 | 358 | 119 | 491 | 83.1 | 73.1 | 125 | 50.1 | 193 | 84.9 |
| 16 | vorinostat and GW441756 | 73.5 | 48.7 | 76.3 | 62.6 | 25.3 | 36.9 | 65.4 | 188 | 26.5 | 98.8 | 221 | 171 | 46.4 | 228 | 80.3 |
| 17 | AZD7762 and PD173074 | 75.8 | 54.1 | 372 | 124 | 135 | 261 | 77.4 | 544 | 240 | 341 | 302 | 413 | 116 | 61.6 | 287 |
| 18 | OSU-03012 and enzastaurin | 50.9 | 237 | 115 | - | 179 | - | 525 | 1050 | 136 | 436 | 55.2 | 868 | 82.1 | 239 | 559 |
| 19 | NVP-BEZ235 and AZD7762 | 82.5 | 52.9 | 255 | - | 125 | - | 146 | 225 | 61.9 | 1720 | 190 | 1120 | 169 | 148 | 450 |
| 20 | NVP-BEZ235 and enzastaurin | 30.6 | 38.5 | 38.6 | - | 91.0 | 118 | 55.4 | 103 | 86.1 | 170 | 116 | 108 | 132 | 317 | 162 |
| 21 | PD173074 and enzastaurin | 161 | 39.8 | 178 | 201 | 174 | 52.5 | 102 | 151 | 160 | 63.8 | 374 | 99.6 | 54.4 | 179 | 296 |
| 22 | GW441756 and NVP-BEZ235 | 166 | 1720 | 30.9 | 39.4 | 113 | 123 | 103 | 53.8 | 55.7 | 94.0 | 98.2 | 89.5 | 51.4 | 147 | 168 |
| 23 | enzastaurin and vorinostat | 39.7 | 85.5 | 211 | - | 46.4 | - | 77.8 | 138 | 40.7 | 149 | 108 | 123 | 37.2 | 136 | 370 |
| 24 | crizotinib and embelin | 249 | 100 | 167 | 213 | 37.8 | 34.6 | 221 | 145 | 50.2 | 95.2 | 113 | 144 | 40.5 | 124 | 165 |
| 25 | PD173074 and OSU-03012 | 43.6 | 72.2 | 664 | 656 | 58.4 | 436 | 75.1 | 255 | 116 | 89.2 | 45.1 | 1130 | 52.3 | 99.9 | 37.5 |
| 26 | enzastaurin and AZD7762 | 188 | 46.3 | 241 | - | 124 | - | 199 | 313 | 174 | 135 | 409 | 441 | 139 | 187 | 674 |
| 27 | AZD7762 and embelin | 87.6 | 265 | 251 | 184 | 45.5 | 496 | 140 | 649 | 93.8 | 127 | 129 | 519 | 117 | 407 | 227 |
| 28 | embelin and OSU-03012 | 57.2 | 117 | 102 | 4250 | 120 | 38.1 | 181 | 1100 | 169 | 112 | 50.4 | 4220 | 79.8 | 96.4 | 40.5 |
| 29 | GW441756 and crizotinib | 91.4 | 39.0 | 103 | 66.5 | 74.0 | 40.0 | 103 | 61.2 | 66.3 | 78.8 | 55.6 | 100 | 95.3 | 111 | 183 |
| 30 | PD173074 and GW441756 | 90.2 | 93.6 | 181 | 42.7 | 64.7 | 19.3 | 111 | 37.5 | 54.6 | 96.5 | 78.5 | 145 | 73.9 | 103 | 64.1 |
| 31 | PD173074 and NVP-BEZ235 | 233 | 82.0 | 398 | 49.4 | 326 | 205 | 62.1 | 71.8 | 78.1 | 81.5 | 237 | 145 | 179 | 232 | 131 |
| 32 | GW441756 and embelin | 88.6 | 80.8 | 103 | 43.8 | 138 | 44.9 | 107 | 52.3 | 213 | 81.3 | 149 | 363 | 88.9 | 211 | 79.1 |
| 33 | AZD7762 and crizotinib | 86.1 | 73.7 | 215 | - | 92.8 | - | 140 | 202 | 116 | 1040 | 197 | 364 | 111 | 118 | 438 |
| 34 | LFM-A13 and PD173074 | 124 | 211 | 92.6 | 139 | 101 | 63.2 | 242 | 57.3 | 30.0 | 84.3 | 98.8 | 133 | 27.8 | 77.8 | 75.8 |
| 35 | LFM-A13 and embelin | 64.7 | 79.0 | 109 | 108 | 41.4 | 39.9 | 132 | 123 | 79.3 | 95.0 | 80.2 | 93.6 | 116 | 51.7 | 79.4 |
| 36 | LFM-A13 and NVP-BEZ235 | 107 | 146 | 228 | 545 | 106 | 302 | 164 | 225 | 103 | 69.7 | 120 | 139 | 31.5 | 338 | 129 |
| 37 | enzastaurin and LFM-A13 | 91.6 | 51.5 | 133 | 36.6 | 46.6 | 140 | 97.1 | 203 | 94.1 | 79.1 | 86.9 | 107 | 114 | 279 | 375 |
| 38 | OSU-03012 and GW441756 | 74.3 | 132 | 2140 | 2020 | 62.6 | 1970 | 82.0 | 855 | 126 | 85.4 | 383 | 344 | 105 | 50.2 | 40.5 |
| 39 | PD173074 and crizotinib | 168 | 86.2 | 162 | 43.8 | 84.5 | 47.0 | 220 | 121 | 83.9 | 94.1 | 33.9 | 139 | 68.2 | 169 | 84.8 |
| 40 | GW441756 and enzastaurin | 64.5 | 305 | 89.1 | 97.7 | 98.9 | 94.1 | 399 | 341 | 48.0 | 76.9 | 69.2 | 98.6 | 60.3 | 86.2 | 201 |

2 of the entries, repeated:

{"drugs": "LFM-A13 and crizotinib", "LOX IMVI": 121, "IPC-298": 211, "WM451Lu": 66.7, "501mel": 69.1, "G-361": 113, "A375": 124, "COLO 800": 172, "SK-MEL-28": 179, "IST-MEL1": 99.4, "C32": 88.7, "LB2518-MEL": 123, "WM3619": 101, "MZ2-MEL": 42.9, "UACC-62": 186, "RPMI-7951": 38.0}
{"drugs": "OSU-03012 and GW441756", "LOX IMVI": 74.3, "IPC-298": 132, "WM451Lu": 2140, "501mel": 2020, "G-361": 62.6, "A375": 1970, "COLO 800": 82.0, "SK-MEL-28": 855, "IST-MEL1": 126, "C32": 85.4, "LB2518-MEL": 383, "WM3619": 344, "MZ2-MEL": 105, "UACC-62": 50.2, "RPMI-7951": 40.5}

Data from the primary screen of doi:10.1371/journal.pone.0140310, rounded.